We go through 1 molecule from PMC11128406.

These are yes or no findings as the source states them, for the method shown. Binding seen in cells or lysates may run through a third protein. Some entries that bind do so weakly or less than the wild type.

This assay addresses Pleckstrin homology domain containing protein family member 1 (PLEKHM1) (human (in HUVECs)), Q9Y4G2. As to the kind of experiment: co-IP; HUVECs lysed in precooled RIPA, precleared with Protein A/G agarose, antibody overnight, captured on Protein A agarose at 4 C, washed three times, Western blot. The following applies: remark: other sources report otherwise. (A western blot detects proteins with antibodies after separation by electrophoresis.)

B1: hVps41, P49754 1-854 (protein)
chain: MAEAEEQETGSLEESTDESEEEESEEEPKLKYERLSNGVTEILQKDAASCMTVHDKFLALGTHYGKVYLLDVQGNITQKFDVSPVKINQISLDESGEHMGVCSEDGKVQVFGLYSGEEFHETFDCPIKIIAVHPHFVRSSCKQFVTGGKKLLLFERSWMNRWKSAVLHEGEGNIRSVKWRGHLIAWANNMGVKIFDIISKQRITNVPRDDISLRPDMYPCSLCWKDNVTLIIGWGTSVKVCSVKERHASEMRDLPSRYVEIVSQFETEFYISGLAPLCDQLVVLSYVKEISEKTEREYCARPRLDIIQPLSETCEEISSDALTVRGFQENECRDYHLEYSEGESLFYIVSPRDVVVAKERDQDDHIDWLLEKKKYEEALMAAEISQKNIKRHKILDIGLAYINHLVERGDYDIAARKCQKILGKNAALWEYEVYKFKEIGQLKAISPYLPRGDPVLKPLIYEMILHEFLESDYEGFATLIREWPGDLYNNSVIVQAVRDHLKKDSQNKTLLKTLAELYTYDKNYGNALEIYLTLRHKDVFQLIHKHNLFSSIKDKIVLLMDFDSEKAVDMLLDNEDKISIKKVVEELEDRPELQHVYLHKLFKRDHHKGQRYHEKQISLYAEYDRPNLLPFLRDSTHCPLEKALEICQQRNFVEETVYLLSRMGNSRSALKMIMEELHDVDKAIEFAKEQDDGELWEDLILYSIDKPPFITGLLNNIGTHVDPILLIHRIKEGMEIPNLRDSLVKILQDYNLQILLREGCKKILVADSLSLLKKMHRTQMKGVLVDEENICESCLSPILPSDAAKPFSVVVFHCRHMFHKECLPMPSMNSAAQFCNICSAKNRGPGSAILEMKK
Regarding B1, the binding result is “binds”.
